Reference: patent publication US20260116983A1
No constants are given. Whether binding was seen depends on the method and setting. Some binding calls cover weakened binding; strength is not graded here.

Protein sequences, listed by entry. Tags and fused reporters are not part of them. Residues count along the entry.
UniProt Q03405, residues 23-305: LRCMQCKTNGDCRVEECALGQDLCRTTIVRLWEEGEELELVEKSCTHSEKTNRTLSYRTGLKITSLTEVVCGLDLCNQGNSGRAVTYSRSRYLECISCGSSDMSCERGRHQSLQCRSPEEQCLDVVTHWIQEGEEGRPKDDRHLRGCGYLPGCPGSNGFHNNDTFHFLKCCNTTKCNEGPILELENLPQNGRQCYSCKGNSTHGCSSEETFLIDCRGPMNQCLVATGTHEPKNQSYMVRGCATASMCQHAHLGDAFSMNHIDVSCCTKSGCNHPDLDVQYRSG

Columns and labels:
[1] = target: T1, cynomolgus uPAR (recombinant) (cynomolgus monkey) (UniProt Q9GK78); assay: ELISA (FIG. 3A)
T1 sequence (looked up): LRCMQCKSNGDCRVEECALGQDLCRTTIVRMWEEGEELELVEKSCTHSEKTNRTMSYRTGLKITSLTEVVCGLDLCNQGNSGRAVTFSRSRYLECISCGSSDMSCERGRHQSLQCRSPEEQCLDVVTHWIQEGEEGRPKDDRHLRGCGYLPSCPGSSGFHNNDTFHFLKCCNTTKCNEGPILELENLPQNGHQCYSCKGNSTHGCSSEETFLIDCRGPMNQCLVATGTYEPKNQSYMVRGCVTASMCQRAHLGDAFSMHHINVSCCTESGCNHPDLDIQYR

[2] = target: T1, cynomolgus uPAR (recombinant) (cynomolgus monkey); assay: ELISA, plate-coated cyno uPAR
[3] = target: recombinant soluble form of human uPAR (suPAR) (human) (UniProt Q03405); assay: BLI, candidate 1 loaded on the sensor, suPAR in solution [Cont.) C]
[4] = target: T1, cynomolgus uPAR (recombinant) (cynomolgus monkey); assay: ELISA on plate-coated cynomolgus uPAR, HRP anti-human IgG, O.D. A450nm
[5] = target: recombinant soluble form of human uPAR (suPAR) (human) (UniProt Q03405); assay: BLI, suPAR captured by 2G10 on the sensor, candidate antibody in solution [Cont.) B]
[6] = target: recombinant soluble form of human uPAR (suPAR) (human) (UniProt Q03405); assay: BLI, candidate 1 loaded on the sensor, suPAR, then candidate 2 in solution [Cont.) C]
[7] = target: recombinant soluble form of human uPAR (suPAR) (human) (UniProt Q03405); assay: BLI, suPAR captured by 2G10 on the sensor, 3159 in solution, before or after vitronectin
[8] = target: T1, cynomolgus uPAR (recombinant) (cynomolgus monkey); assay: ELISA on plate-coated cynomolgus uPAR, HRP anti-human IgG, O.D. A450nm [Cont.]
[9] = target: human uPAR displayed on the surface of MDA-MB-231 cells (human) (UniProt Q03405); assay: flow cytometry on MDA-MB-231 (high uPAR) and MCF-7 (low uPAR) cells

Measured: binding

B1: Antibody 8163 (antibody, human IgG1, V domains shown)
VH: EVQLVESGGGLVQPGESLTLSCDSNEFDFPSHDMSWVRKTPEKRLELVAAIDSDGGLTYYSNSRERRFIISRDNTKNTLYLQMRSLRSEDTALYYCARRRASYWYFDVWGTGTTVTVSS
VL: DILLTQSPAILPVSPGERVSFSCRASQNIGTSIHWYQQRTNGSPRLLIKYASESISGIPSRFSGSGSGTDFTLSINGVESEDIGDYYCQQSNSWPTFGGGTKLEIK
binds: [1] | [2] | [3] | [4] | [5]

B2: Antibody 3159 (antibody, human IgG1, V domains shown)
VH: QVTLKESGPGILQSSLTLSLTCSLSGFSLSTSGMGVSWIRQPSGKGLEWLAHIYWDDDKRYNPSLKTRLTISKDASRDQVFLKIISVDTADTGTYYCGRRVRNYFSGTSYWYFDVWGTGTTVTVSS
VL: DVLMTQTPLSLSVSLGDQASISCRSSQNILHRTGNTYLEWYLQKPGQSPKLLIYKVSNRFSGVPDRFSGSGSGTDFTLKISRLEAEDLGVYYCFQGSYVPFTFGSGTKLEMK
binds: [1] | [2] | [4] | [5] | [6] | [7]

B3: Antibody 11857 (antibody, human IgG1, V domains shown)
VH: EVQLRQSGPELVKPGASVKISCKASGYTFTDYYMNWVKQSHEKSLEWIGNINPNNGGTDYNQKFKGKATLTVDKSSSTAYMELRSLTSEDSAVYYCARSYGSRFPYWGLGTLVTVSA
VL: DIQMTQTTSSLSASLGDRVTISCRASQDITNYLSWYQQKPDGTVKLLIFYTAVLQSGFPLRFSGSGSGADYSLTISNLEQEDFATYFCQQGHTLPWTFGGGTKLEIK
binds: [1] | [2] | [4] | [5]

B4: Antibody 3595 (antibody, human IgG1, V domains shown)
VH: EVQLRQSGPELVKPGASVKISCKASGYTFTDYYMNWVKQSHEKSLEWIGNINPNNGGTDYNQKFKGKATLTVDKSSSTAYMELRSLTSEDSAVYYCARSYGSRFPYWGLGTLVTVSA
VL: DIQMTQTTSSLSASLGDRVTISCRASQDITNYLSWYQQKPDGTVKLLIFYTSFLQSGVPLRFSGSGSGADYSLTISNLEQEDFATYFCQQGHTLPWTFGGGTKLEIK
binds: [1] | [2] | [8]

B5: 11857 HC1 + LC2 (humanized) (antibody, V domains shown)
VH: EVQLVQSGAEVKKPGATVKISCKVSGYTFTDYYMNWVQQAPGKSLEWMGNINPNNGGTDYNQKFQGRVTITADKSTSTAYMELSSLRSEDTAVYYCARSYGSRFPYWGLGTLVTVSS
VL: DIQMTQSPSSLSASVGDRVTITCRASQDITNYLSWYQQKPGGTVKLLIFYTAVLQSGFPSRFSGSGSGADFTLTISSLQPEDVATYYCQQGHTLPWTFGGGTKVEIK
binds: [9]

B6: 11857 HC1 + LC3 (humanized) (antibody, V domains shown)
VH: EVQLVQSGAEVKKPGATVKISCKVSGYTFTDYYMNWVQQAPGKSLEWMGNINPNNGGTDYNQKFQGRVTITADKSTSTAYMELSSLRSEDTAVYYCARSYGSRFPYWGLGTLVTVSS
VL: DIQMTQSPSSLSASVGDRVTITCRASQDITNYLSWFQQKPGGTVKLLIYYTAVLQSGFPSRFSGSGSGADFTLTISSLQPEDFATYYCQQGHTLPWTFGGGTKVEIK
binds: [9]

B7: 11857 HC2 + LC2 (humanized) (antibody, V domains shown)
VH: EVQLVQSGAEVKKPGASVKVSCKASGYTFTDYYMNWVRQAPGKSLEWMGNINPNNGGTDYSQKFQGRVTITVDTSASTAYMELSSLRSEDTAVYYCARSYGSRFPYWGLGTLVTVSS
VL: DIQMTQSPSSLSASVGDRVTITCRASQDITNYLSWYQQKPGGTVKLLIFYTAVLQSGFPSRFSGSGSGADFTLTISSLQPEDVATYYCQQGHTLPWTFGGGTKVEIK
binds: [9]
